From patent US20230235080A1, “TROPHOBLAST CELL-SURFACE ANTIGEN-2 (TROP-2) ANTIBODIES” (Bionecure Therapeutics, Inc., priority 2020, published 2023)
No constants are given. Whether binding was seen depends on the method and setting. Some results given as binding are weak or reduced against the parent protein; the word gives no strength.

B1: #118-2-5 mouse H4-2/L3-3 (antibody, V domains shown)
VH: QVQLKQSGPGLVAPSQSLSITCTVSGFSLTSYGVNWIRQPPGKGLEWLGVMWAGGSTNYNSALMSRLSISKDNSKSQVFLKMNSLQTDDTGMYYCARDENWDGAWFAYWGQGTLVTVS
VL: DIQMTQSPSSLAVSAGEKVTMSCKSSQSLLNSGTRKNYLAWYQQKPGQSPKLLISWASSRESGVPDRFTGSGSGTDFTLTISSVQAEDLAVYYCKQSYNLFTFGGGTKLELK
notes: The label H4-2/L3-3 is not explained
B2: humanized IgG #118-2-5 HuA/LuX (antibody, V domains shown)
VH: QVQLQESGPGLVKPSETLSLTCTVSGFSLTSYGVNWIRQPPGKGLEWIGVMWAGGSTNYNSALMSRVTISVDTSKNQFSLKLSSVTAADTAVYYCARDENWDGAWFAYWGQGTLVTVSS
VL: DIVMTQSPDSLAVSLGERATINCKSSQSLLNSGTRKNYLAWYQQKPGQPPKLLIYWASSRESGVPDRFSGSGSGTDFTLTISSLQAEDVAVYYCKQSYNLFTFGGGTKVEIK
notes: Full-length IgG expressed in HEK293-6E cells; also called 1 (HuA/LuX); IgG HuA/LuX
B3: humanized IgG #118-2-5 HuA/LuY (antibody, V domains shown)
VH: QVQLQESGPGLVKPSETLSLTCTVSGFSLTSYGVNWIRQPPGKGLEWIGVMWAGGSTNYNSALMSRVTISVDTSKNQFSLKLSSVTAADTAVYYCARDENWDGAWFAYWGQGTLVTVSS
VL: DIVMTQSPSSLAVSLGERATMSCKSSQSLLNSGTRKNYLAWYQQKPGQPPKLLISWASSRESGVPDRFSGSGSGTDFTLTISSVQAEDLAVYYCKQSYNLFTFGGGTKVEIK
notes: Full-length IgG expressed in HEK293-6E cells
B4: humanized IgG #118-2-5 HuB/LuX (antibody, V domains shown)
VH: QVQLKQSGPGLVAPSQSLSITCTVSGFSLTSYGVNWIRQPPGKGLEWIGVMWAGGSTNYNSALMSRVTISVDTSKNQFSLKLSSVTAADTAVYYCARDENWDGAWFAYWGQGTLVTVSS
VL: DIVMTQSPDSLAVSLGERATINCKSSQSLLNSGTRKNYLAWYQQKPGQPPKLLIYWASSRESGVPDRFSGSGSGTDFTLTISSLQAEDVAVYYCKQSYNLFTFGGGTKVEIK
notes: Full-length IgG expressed in HEK293-6E cells; also called 2 (HuB/LuX)
B5: humanized IgG #118-2-5 HuB/LuY (antibody, V domains shown)
VH: QVQLKQSGPGLVAPSQSLSITCTVSGFSLTSYGVNWIRQPPGKGLEWIGVMWAGGSTNYNSALMSRVTISVDTSKNQFSLKLSSVTAADTAVYYCARDENWDGAWFAYWGQGTLVTVSS
VL: DIVMTQSPSSLAVSLGERATMSCKSSQSLLNSGTRKNYLAWYQQKPGQPPKLLISWASSRESGVPDRFSGSGSGTDFTLTISSVQAEDLAVYYCKQSYNLFTFGGGTKVEIK
notes: Full-length IgG expressed in HEK293-6E cells; also called 6 (HuB/LuY)
B6: humanized IgG #118-2-5 HuD/LuX (antibody, V domains shown)
VH: QVQLKESGPGLVAPSETLSITCTVSGFSLTSYGVNWIRQPPGKGLEWLGVMWAGGSTNYNSALMSRLTISKDTSKNQVSLKLSSVQAADTAMYYCARDENWDGAWFAYWGQGTLVTVSS
VL: DIVMTQSPDSLAVSLGERATINCKSSQSLLNSGTRKNYLAWYQQKPGQPPKLLIYWASSRESGVPDRFSGSGSGTDFTLTISSLQAEDVAVYYCKQSYNLFTFGGGTKVEIK
notes: Full-length IgG expressed in HEK293-6E cells; also called 4 (HuD/LuX)
B7: humanized IgG #118-2-5 HuC/LuX (antibody, V domains shown)
VH: QVQLQESGPGLVKPSETLSLTCTVSGFSLTSYGVNWIRQPPGKGLEWIGVMWAGGSTNYNSALMSRLSISKDNSKSQVFLKMNSLQTDDTGMYYCARDENWDGAWFAYWGQGTLVTVSS
VL: DIVMTQSPDSLAVSLGERATINCKSSQSLLNSGTRKNYLAWYQQKPGQPPKLLIYWASSRESGVPDRFSGSGSGTDFTLTISSLQAEDVAVYYCKQSYNLFTFGGGTKVEIK
notes: Full-length IgG expressed in HEK293-6E cells; also called 3 (HuC/LuX)
B8: humanized IgG #118-2-5 HuC/LuY (antibody, V domains shown)
VH: QVQLQESGPGLVKPSETLSLTCTVSGFSLTSYGVNWIRQPPGKGLEWIGVMWAGGSTNYNSALMSRLSISKDNSKSQVFLKMNSLQTDDTGMYYCARDENWDGAWFAYWGQGTLVTVSS
VL: DIVMTQSPSSLAVSLGERATMSCKSSQSLLNSGTRKNYLAWYQQKPGQPPKLLISWASSRESGVPDRFSGSGSGTDFTLTISSVQAEDLAVYYCKQSYNLFTFGGGTKVEIK
notes: Full-length IgG expressed in HEK293-6E cells; also called 7 (HuC/LuY)
B9: murine-human chimeric IgG1 #118-2-5 (antibody, V domains shown)
VH: QVQLKQSGPGLVAPSQSLSITCTVSGFSLTSYGVNWIRQPPGKGLEWLGVMWAGGSTNYNSALMSRLSISKDNSKSQVFLKMNSLQTDDTGMYYCARDENWDGAWFAYWGQGTLVTVSA
VL: DIQMTQSPSSLAVSAGEKVTMSCKSSQSLLNSGTRKNYLAWYQQKPGQSPKLLISWASSRESGVPDRFTGSGSGTDFTLTISSVQAEDLAVYYCKQSYNLFTFGGGTKLELKR
notes: Chimeric IgG1 expressed in HEK293-6E cells
B10: humanized IgG #118-2-5 HuD/LuY (antibody, V domains shown)
VH: QVQLKESGPGLVAPSETLSITCTVSGFSLTSYGVNWIRQPPGKGLEWLGVMWAGGSTNYNSALMSRLTISKDTSKNQVSLKLSSVQAADTAMYYCARDENWDGAWFAYWGQGTLVTVSS
VL: DIVMTQSPSSLAVSLGERATMSCKSSQSLLNSGTRKNYLAWYQQKPGQPPKLLISWASSRESGVPDRFSGSGSGTDFTLTISSVQAEDLAVYYCKQSYNLFTFGGGTKVEIK
notes: Full-length IgG expressed in HEK293-6E cells; also called 8 (HuD/LuY)
B11: humanized IgG A1,2X4 (antibody, V domains shown)
VH: QVQLQESGPGLVKPSETLSLTCTVSGFSLTSYGVNWIRQPPGKGLEWIGVMWAGGSTNYNSALMSRLTISKDTSKNQFSLKLSSVTAADTAVYYCARDENWDGAWFAYWGQGTLVTVSS
VL: DIVMTQSPDSLAVSLGERATINCKSSQSLLNSGTRKNYLAWYQQKPGQPPKLLISWASSRESGVPDRFSGSGSGTDFTLTISSLQAEDVAVYYCKQSYNLFTFGGGTKVEIKR
notes: Full-length IgG expressed in 293 cells; also called IgG HuA(1,2)/Lu(X4)

Columns and labels:
[1] = target: cynomolgus Trop-2-His (cynomolgus); assay: ELISA on coated antigen, one antibody dilution (concentration not given), detected by GAH-HRP; y axis without a label (OD450 by the text)
[2] = target: cynomolgus Trop-2-His (cynomolgus); assay: cross-reactivity ELISA on coated antigens
[3] = target: cynomolgus Trop-2-His (cynomolgus); assay: ELISA, plate coated with 1 ug/mL antigen, HRP goat-anti-human IgG, OD450
[4] = target: cynomolgus Trop-2-His (cynomolgus); assay: ELISA on coated antigen, one antibody dilution (concentration not given); on the sheet OD405, detected by GAM/H-AP
[5] = target: cynomolgus Trop-2-His (cynomolgus); assay: ELISA on coated antigen, one antibody dilution (concentration not given), detected by GAH-HRP, OD450nm

Binder | binding [1] | binding [2] | binding [3] | binding [4] | binding [5]
B1 | binds | – | – | – | –
B2 | binds | binds | – | – | –
B3 | binds | binds | – | – | –
B4 | binds | binds | – | – | –
B5 | binds | binds | – | – | –
B6 | binds | binds | – | – | –
B7 | binds | binds | – | – | –
B8 | binds | binds | – | – | –
B9 | – | – | binds | binds | –
B10 | binds | binds | – | – | binds
B11 | – | – | binds | – | binds
